Library screening results

Sequences of proteins named here, by UniProt entry; tags and fusion partners are left off.
UniProt E9BF75, entry or part of it: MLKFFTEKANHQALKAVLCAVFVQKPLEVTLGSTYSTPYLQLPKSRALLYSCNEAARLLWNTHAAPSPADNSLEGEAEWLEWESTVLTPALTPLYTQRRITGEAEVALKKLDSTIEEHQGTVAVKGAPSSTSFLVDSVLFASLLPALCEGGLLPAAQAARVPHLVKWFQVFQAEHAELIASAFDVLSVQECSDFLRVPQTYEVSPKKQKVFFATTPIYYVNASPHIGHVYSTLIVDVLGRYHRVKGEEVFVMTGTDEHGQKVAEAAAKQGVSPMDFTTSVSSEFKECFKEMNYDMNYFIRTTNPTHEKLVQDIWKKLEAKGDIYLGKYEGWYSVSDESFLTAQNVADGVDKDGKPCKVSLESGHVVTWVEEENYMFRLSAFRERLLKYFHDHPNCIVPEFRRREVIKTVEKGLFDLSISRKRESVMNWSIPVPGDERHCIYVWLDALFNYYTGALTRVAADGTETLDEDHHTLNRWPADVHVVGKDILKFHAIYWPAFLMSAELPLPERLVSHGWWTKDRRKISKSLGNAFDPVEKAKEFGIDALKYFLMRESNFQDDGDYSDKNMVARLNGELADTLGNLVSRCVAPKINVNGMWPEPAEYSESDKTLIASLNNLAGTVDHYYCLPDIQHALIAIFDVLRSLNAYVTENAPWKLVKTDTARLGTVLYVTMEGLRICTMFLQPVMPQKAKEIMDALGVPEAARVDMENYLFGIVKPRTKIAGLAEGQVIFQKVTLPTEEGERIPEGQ

The values are deposited in ChEMBL (CHEMBL3988442, “University of Dundee, Small-Polar-MMV Screening Library” (2021)).

A: 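Assay on Mycobacterium tuberculosis, filed only as a heat shock assay from Cornell; the read-out is not stated. The concentration is filed as 10 mM, unlikely as a test dose, so the dose is not known. Direction is inferred from retests: higher values go with stronger inhibition. Size under these conditions: about 69,000 compounds, about 930 of them at 50% or above in at least one test.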
B: 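Primary screen of methionyl-tRNA synthetase; the read-out is not stated. Target: Methionyl-tRNA synthetase (putative), Leishmania donovani (UniProt E9BF75). The test concentration is not given. Values are per cent inhibition. Size under these conditions: about 68,000 compounds, about 24 of them at 50% or above in at least one test.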
C: 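Whole-cell assay for inhibitors of Mycobacterium tuberculosis growth, labelled Cornell in the record; the read-out is not stated. The concentration is filed as 10 mM, unlikely as a test dose, so the dose is not known. Higher means stronger inhibition (inferred from two other growth screens of the library). About 53,000 compounds were tested under these conditions; 1.7% (about 900) showed 50% or more at least once.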

Results are percentages, as filed.
The record does not define 0% and 100%; most values in the screen are far below 50% and negative numbers occur (in some assays of this library far below -100).
Compounds were drawn at random from those tested, without regard to their results.

SMILES: CCOCC1CN(Cc2cccnc2)Cc2nn(C)cc21.O=C(O)C(F)(F)F.O=C(O)C(F)(F)F (stereo not shown)
A: -34.52
C: 14.38

SMILES: O=C(N[C@@H]1CCC[C@@H](N2CCCC2)[C@@H]1O)c1cc2ccccc2[nH]1
A: -9.666
B: 7.074
C: -26.64

SMILES: O=C(O)C(F)(F)F.O=C1COC2(CCN(Cc3nccs3)CC2)CN1c1ccccc1
A: -8.113
C: 8.785

SMILES: COc1cc(CN2CCn3c(CO)nnc3C2)ccc1OC(C)C
B: 8.36

SMILES: CC(CS(C)(=O)=O)N(C(=O)CCc1cccc(F)c1)C1CC1 (stereo not shown)
A: -30
B: 8.964
C: 0.7613

SMILES: CCN(CC)c1ccc2ccc(C(=O)N3CCCCO3)cn12
B: 12.57

SMILES: COc1cccc(C2(CNC(C)c3nnc(C)o3)CCCC2)c1 (stereo not shown)
A: -12.3
B: 6.599

SMILES: CCOc1c(Cl)cc(Cl)cc1CNCCCn1ccnc1
A: 7.54
B: 5.455
C: -0.7231

SMILES: O=C1[C@H]2CN(S(=O)(=O)C3CC3)C[C@H]2CN1Cc1cccnc1
B: 11.26

SMILES: CCn1cnnc1CNC(=O)N1CCC(CN2CCOCC2)CC1
A: 8.163
B: 19.2
C: -19.85

SMILES: O=C(c1ccc[nH]1)N1CCc2ccc(S(=O)(=O)N3CCOCC3)cc2C1
A: -3.609
B: 11.53
C: -10.67

SMILES: Cc1cccc(OCCC(=O)N2CCN(CC(=O)NC3CC3)CC2)c1C
A: -16.31
B: 19.44

SMILES: CS(=O)(=O)c1ccc(OCCNCc2c(F)cccc2F)cc1
A: 2.892
B: 18.44
C: 6.928

SMILES: Cc1ccnc(NC(=O)c2ccc(C)o2)c1
A: -8.412
B: 0.304
C: -18.3

SMILES: CC(NS(=O)(=O)N(C)C(C)C)C(=O)N(C)C (stereo not shown)
A: -12.01
B: 3.495
C: -1.283

SMILES: O=C(O)C(=O)O.c1cnc(-c2noc(C3CN(Cc4ccc5c(c4)CCO5)C3)n2)nc1
A: 8.238
C: -39.91

SMILES: Cc1ccc(CC2CCCN2CC(=O)NCc2ccccn2)cc1 (stereo not shown)
A: 30.68
B: 15.49
C: 17.89

SMILES: Cn1nc(C(=O)N2CCC(Oc3ccc(C#N)cn3)CC2)ccc1=O
A: 9.484
B: 10.14
C: 12.77

SMILES: COC[C@H]1CNC(=O)[C@@H]2CCN(Cc3ccc(F)cc3)CC[C@H]12
B: 17.04

SMILES: CCn1ncc2c1CCCC2NCc1cscn1 (stereo not shown)
A: -1.649
B: 15.85
C: 12.78

SMILES: CC(=O)N1CCC2(CC1)CN(C(=O)[C@@H]1CSCN1)c1ccc(Cl)cc12.O=C(O)C(F)(F)F
A: 52.14
C: 15.94

SMILES: Cc1nc(COC[C@H]2CCC[C@]23CN(C2CCOC2)CCO3)cs1 (stereo partly shown)
A: -4.343
B: 5.333
C: -20.68

SMILES: O=C1O[C@@H]2CN(Cc3cc4ccccc4s3)C[C@@H]2N1Cc1ccccn1
B: 12.73

SMILES: CS(=O)(=O)NC[C@]12COC[C@H]1CN(CC1CCC1)C2
B: 10.85

SMILES: O=C1CC2(CCCCN2C(=O)c2ccco2)CN1c1cccnc1 (stereo not shown)
B: 0.9772

SMILES: COCCN1CCCc2sc(C(=O)Nc3ccc(C)nc3)nc21
B: 18.8

SMILES: Cc1ccc(C(CNCc2cccn2C)N2CCOCC2)s1 (stereo not shown)
A: 1.293
B: 13.19
C: 24.34

SMILES: O=C(Nc1cc(Cl)ccc1Cl)NC1CCN(C2CCOC2)CC1 (stereo not shown)
A: -19.88
B: 14.14
C: 21.1

SMILES: CSCc1ccc(N2CCC(C(O)CC(C)C)CC2)nc1 (stereo not shown)
A: -30.65
B: 5.128

SMILES: O=C(N1CCOCC1)N1C[C@H]2CN(Cc3nccs3)C[C@H]2C1
B: 10.67

SMILES: CC(C)S(=O)(=O)C(C)C(=O)NCc1cccc(N2CCCCC2=O)c1 (stereo not shown)
A: 20.54
B: -1.718
C: -30.84

SMILES: [H][C@@]12C[C@H](C(=O)NCc3ccccc3)[C@@]([H])(CN(C(=O)NC(C)C)C1)O2
A: 3.837
C: -39.56

SMILES: c1ccc(C2CCCN2C2CCSCC2)nc1 (stereo not shown)
A: 7.968
B: 17.27
C: 18.56

SMILES: CNc1ncc2c(n1)CN(c1cccc(OC)c1)C2=O
A: 3.494
B: -11.81

SMILES: CCn1ccnc1C1CCCN(c2nccc3ccccc23)C1 (stereo not shown)
A: -17.06
B: 7.035
C: 26.66

SMILES: CCS(=O)(=O)N1Cc2ncn(CC3CC3)c2C(COCC2CC2)C1.O=C(O)C(F)(F)F (stereo not shown)
A: -24.77

SMILES: O=C(NCc1ccc2[nH]c(=O)[nH]c2c1)c1ccc(CN2CCCC2)o1
A: 10.76
B: 2.01
C: 4.414

SMILES: Cc1noc(C)c1CN1Cc2cnn(C)c2C(COCC2CC2)C1.O=C(O)C(F)(F)F.O=C(O)C(F)(F)F (stereo not shown)
A: 2.508
C: 28.98